Assay results reported in patent US20150285801A1.
No constants are given. Whether binding was seen depends on the method and setting. Binding seen in cells or lysates may run through a third protein. Some entries that bind do so weakly or less than the wild type.

Amino acid sequences for entries named in this document (tags omitted). A change or cut given only in a name is not applied to a line headed by its entry.
UniProt P11387: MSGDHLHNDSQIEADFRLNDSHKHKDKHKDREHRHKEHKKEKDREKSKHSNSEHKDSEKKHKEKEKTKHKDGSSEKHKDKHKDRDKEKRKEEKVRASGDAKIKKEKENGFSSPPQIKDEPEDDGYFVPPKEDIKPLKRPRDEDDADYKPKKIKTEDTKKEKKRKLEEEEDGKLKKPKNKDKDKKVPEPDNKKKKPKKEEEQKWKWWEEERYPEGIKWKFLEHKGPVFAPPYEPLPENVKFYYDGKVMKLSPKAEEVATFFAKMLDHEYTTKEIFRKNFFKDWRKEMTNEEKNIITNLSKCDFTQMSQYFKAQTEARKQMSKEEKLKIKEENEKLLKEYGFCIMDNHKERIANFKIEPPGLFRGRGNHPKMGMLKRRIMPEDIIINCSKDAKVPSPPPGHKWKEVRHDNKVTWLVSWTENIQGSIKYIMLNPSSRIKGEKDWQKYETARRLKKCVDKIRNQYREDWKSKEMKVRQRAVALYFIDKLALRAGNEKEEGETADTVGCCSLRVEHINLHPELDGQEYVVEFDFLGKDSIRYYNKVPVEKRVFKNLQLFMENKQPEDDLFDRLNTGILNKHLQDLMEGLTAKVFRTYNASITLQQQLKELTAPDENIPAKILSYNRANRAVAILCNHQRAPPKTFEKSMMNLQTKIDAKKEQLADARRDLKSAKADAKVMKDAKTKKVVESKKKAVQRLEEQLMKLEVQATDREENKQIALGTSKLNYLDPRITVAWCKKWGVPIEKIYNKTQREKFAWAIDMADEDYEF
UniProt P38398: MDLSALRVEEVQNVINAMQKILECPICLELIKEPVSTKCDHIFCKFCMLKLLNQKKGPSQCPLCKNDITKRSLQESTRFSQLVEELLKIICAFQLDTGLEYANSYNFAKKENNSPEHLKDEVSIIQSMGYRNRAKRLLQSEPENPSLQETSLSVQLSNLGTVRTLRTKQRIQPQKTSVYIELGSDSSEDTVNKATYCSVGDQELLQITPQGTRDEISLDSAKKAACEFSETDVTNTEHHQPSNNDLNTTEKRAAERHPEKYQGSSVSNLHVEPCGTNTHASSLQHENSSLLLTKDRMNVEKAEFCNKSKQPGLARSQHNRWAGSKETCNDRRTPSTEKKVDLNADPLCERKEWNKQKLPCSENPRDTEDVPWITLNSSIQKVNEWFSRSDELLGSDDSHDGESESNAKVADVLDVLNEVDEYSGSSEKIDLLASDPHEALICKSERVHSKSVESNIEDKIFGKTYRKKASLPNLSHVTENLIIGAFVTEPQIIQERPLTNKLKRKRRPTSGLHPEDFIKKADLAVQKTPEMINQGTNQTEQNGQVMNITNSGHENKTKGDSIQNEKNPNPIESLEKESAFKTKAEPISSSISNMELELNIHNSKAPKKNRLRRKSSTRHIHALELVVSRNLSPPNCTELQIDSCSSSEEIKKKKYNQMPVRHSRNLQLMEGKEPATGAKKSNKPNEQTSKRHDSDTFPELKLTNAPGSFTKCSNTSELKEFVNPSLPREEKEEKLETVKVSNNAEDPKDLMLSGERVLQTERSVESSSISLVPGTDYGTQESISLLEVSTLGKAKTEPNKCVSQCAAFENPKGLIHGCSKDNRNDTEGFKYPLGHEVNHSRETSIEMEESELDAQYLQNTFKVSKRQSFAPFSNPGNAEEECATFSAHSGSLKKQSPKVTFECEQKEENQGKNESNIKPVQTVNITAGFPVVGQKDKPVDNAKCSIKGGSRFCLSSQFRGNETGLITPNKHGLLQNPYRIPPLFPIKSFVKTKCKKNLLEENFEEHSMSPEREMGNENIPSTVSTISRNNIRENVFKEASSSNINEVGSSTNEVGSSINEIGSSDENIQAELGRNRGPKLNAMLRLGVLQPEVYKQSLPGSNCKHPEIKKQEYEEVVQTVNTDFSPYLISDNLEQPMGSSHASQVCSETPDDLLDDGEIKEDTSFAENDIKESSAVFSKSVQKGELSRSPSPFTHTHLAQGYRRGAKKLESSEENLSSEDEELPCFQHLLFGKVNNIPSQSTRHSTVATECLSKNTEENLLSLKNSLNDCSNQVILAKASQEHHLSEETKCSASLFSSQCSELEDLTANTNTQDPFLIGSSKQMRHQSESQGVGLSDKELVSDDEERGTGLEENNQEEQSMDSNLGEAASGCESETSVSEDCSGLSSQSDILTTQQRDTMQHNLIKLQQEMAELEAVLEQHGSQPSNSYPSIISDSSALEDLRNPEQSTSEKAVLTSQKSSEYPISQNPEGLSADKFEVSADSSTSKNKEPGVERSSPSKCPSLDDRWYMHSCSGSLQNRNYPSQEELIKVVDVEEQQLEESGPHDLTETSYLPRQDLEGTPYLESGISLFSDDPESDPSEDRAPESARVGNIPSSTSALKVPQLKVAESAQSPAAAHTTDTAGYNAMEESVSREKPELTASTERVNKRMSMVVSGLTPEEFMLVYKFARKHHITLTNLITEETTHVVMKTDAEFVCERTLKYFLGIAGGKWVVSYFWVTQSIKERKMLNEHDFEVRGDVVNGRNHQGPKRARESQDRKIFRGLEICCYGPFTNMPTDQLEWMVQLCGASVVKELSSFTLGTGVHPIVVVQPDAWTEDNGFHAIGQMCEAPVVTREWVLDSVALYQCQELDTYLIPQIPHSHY

Target: topoisomerase I (human) (UniProt P11387)
Assay: GST pull-down of purified topo I, immunoblot with anti-topoI

“GST-BRCT (from UniProt P38398 1650-1863)” was tested. Which binding did it give?
The binding was “binds”.
